The other results are listed elsewhere or left out.
Columns and labels:
Assay in all cases: log2 fold change, soluble protein after heating vs DMSO (PISA); higher = thermal stabilisation; K562 cells, 10 uM, 30 min; active = over 0.2 and 3.5 SD of the protein, either way, in both replicates (recomputed)
[1] = compound: CC[C@@H]1C(=O)N(C)c2cnc(Nc3ccc(C(=O)NC4CCN(C)CC4)cc3OC)nc2N1C1CCCC1
Method in brief: (§1)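 Quantification of soluble protein used TMTpro 16plex LC-MS/MS, with channel sums equalised. Samples were the supernatant after 21,000xg for 90 min of pooled aliquots from K562 cells (2×10^6 cells/mL) treated with 10 μM compound for 30 min, heated for 3 min over 48°C-58°C, and extracted in PBS with 0.5% NP-40 at 4°C. Values, from duplicates, describe thermal stability against control samples on a log2 fold-change scale.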

The chains behind the UniProt entries cited, without tags or fusion partners. Where a name states a change or a piece, a line headed by the entry shows the natural chain unless it says otherwise.
UniProt P56385: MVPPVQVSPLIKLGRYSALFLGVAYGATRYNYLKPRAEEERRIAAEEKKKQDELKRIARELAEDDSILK
UniProt P00966: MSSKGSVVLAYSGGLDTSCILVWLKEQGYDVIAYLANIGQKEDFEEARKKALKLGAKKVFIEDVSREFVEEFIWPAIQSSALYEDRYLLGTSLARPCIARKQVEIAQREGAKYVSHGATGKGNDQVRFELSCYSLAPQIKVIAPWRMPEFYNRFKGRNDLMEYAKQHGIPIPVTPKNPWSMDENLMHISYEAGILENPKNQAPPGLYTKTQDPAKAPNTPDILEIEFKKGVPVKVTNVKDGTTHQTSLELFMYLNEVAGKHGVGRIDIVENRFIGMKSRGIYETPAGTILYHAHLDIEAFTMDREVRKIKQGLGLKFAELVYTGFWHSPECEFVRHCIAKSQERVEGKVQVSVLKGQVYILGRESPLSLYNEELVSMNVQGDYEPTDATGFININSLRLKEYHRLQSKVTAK
UniProt P18847: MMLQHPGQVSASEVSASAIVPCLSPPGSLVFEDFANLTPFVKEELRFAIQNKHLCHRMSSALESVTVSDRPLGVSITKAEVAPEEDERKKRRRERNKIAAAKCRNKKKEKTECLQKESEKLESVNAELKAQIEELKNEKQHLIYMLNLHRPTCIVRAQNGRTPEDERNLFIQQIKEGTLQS
UniProt Q15904, whole entry, looked up: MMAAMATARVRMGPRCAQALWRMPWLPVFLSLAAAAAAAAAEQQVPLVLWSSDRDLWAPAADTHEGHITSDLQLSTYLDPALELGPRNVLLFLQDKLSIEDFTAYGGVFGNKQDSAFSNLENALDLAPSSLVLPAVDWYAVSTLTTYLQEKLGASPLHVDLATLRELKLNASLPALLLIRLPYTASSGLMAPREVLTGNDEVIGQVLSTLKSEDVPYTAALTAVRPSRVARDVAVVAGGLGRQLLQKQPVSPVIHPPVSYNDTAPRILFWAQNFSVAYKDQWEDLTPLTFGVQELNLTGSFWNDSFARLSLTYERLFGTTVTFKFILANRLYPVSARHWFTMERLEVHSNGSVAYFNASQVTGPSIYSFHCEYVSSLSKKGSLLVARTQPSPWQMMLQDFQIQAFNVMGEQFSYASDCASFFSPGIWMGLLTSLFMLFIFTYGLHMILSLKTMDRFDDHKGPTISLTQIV
UniProt Q16864, whole entry, looked up: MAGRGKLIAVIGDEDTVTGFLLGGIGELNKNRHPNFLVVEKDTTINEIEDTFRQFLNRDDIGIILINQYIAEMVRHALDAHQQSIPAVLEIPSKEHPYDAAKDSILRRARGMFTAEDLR
UniProt Q9Y6H3: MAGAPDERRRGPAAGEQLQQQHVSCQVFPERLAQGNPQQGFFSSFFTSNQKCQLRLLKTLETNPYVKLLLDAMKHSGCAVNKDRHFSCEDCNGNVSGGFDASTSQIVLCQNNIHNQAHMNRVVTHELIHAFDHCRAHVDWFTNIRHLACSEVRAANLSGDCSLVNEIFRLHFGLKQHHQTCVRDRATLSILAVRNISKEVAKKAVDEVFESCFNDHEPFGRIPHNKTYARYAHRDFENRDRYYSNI
UniProt Q13733, whole entry, looked up: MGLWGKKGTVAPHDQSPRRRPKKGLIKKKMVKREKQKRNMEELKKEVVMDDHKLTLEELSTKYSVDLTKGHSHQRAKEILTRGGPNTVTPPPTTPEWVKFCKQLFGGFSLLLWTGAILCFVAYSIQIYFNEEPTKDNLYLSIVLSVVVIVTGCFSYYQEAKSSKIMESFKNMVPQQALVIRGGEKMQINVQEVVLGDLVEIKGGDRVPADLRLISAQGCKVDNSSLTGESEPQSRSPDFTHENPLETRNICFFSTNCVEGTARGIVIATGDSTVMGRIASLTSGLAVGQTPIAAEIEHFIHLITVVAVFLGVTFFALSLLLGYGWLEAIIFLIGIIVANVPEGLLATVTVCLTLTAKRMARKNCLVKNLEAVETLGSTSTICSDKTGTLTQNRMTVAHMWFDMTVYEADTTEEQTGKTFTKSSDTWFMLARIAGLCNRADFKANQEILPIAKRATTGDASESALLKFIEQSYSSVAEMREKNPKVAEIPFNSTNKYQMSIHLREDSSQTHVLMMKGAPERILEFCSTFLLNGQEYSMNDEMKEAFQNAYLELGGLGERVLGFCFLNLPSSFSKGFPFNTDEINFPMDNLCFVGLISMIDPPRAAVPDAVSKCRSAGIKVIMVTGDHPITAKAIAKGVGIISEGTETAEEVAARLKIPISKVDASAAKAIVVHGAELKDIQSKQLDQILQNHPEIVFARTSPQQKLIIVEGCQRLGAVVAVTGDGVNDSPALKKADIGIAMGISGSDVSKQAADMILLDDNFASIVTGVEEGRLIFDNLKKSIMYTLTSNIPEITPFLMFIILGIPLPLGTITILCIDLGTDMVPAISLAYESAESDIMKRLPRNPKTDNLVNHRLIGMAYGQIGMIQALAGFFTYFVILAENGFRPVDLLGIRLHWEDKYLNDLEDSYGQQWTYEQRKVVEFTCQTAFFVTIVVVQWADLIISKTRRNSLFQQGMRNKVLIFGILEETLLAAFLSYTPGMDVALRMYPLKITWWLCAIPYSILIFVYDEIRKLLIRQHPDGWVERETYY
UniProt O00244: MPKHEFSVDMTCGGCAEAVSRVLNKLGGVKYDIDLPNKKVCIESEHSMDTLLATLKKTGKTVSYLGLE
UniProt Q9UI12, whole entry, looked up: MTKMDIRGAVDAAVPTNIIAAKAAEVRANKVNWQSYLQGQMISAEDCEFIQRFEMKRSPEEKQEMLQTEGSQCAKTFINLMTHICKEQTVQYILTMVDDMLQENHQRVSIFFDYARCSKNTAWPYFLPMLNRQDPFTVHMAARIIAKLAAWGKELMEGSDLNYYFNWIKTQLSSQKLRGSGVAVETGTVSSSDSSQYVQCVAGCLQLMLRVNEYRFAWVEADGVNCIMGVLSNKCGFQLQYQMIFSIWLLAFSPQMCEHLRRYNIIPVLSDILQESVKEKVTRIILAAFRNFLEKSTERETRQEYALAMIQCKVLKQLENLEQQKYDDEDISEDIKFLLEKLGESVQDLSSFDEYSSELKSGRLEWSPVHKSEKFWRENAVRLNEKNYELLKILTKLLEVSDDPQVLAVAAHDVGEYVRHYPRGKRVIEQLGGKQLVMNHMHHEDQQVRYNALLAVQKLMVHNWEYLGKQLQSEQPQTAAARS
UniProt P18859: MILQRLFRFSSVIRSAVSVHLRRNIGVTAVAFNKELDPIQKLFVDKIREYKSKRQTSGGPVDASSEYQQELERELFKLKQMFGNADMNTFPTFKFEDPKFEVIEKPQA
UniProt P98194: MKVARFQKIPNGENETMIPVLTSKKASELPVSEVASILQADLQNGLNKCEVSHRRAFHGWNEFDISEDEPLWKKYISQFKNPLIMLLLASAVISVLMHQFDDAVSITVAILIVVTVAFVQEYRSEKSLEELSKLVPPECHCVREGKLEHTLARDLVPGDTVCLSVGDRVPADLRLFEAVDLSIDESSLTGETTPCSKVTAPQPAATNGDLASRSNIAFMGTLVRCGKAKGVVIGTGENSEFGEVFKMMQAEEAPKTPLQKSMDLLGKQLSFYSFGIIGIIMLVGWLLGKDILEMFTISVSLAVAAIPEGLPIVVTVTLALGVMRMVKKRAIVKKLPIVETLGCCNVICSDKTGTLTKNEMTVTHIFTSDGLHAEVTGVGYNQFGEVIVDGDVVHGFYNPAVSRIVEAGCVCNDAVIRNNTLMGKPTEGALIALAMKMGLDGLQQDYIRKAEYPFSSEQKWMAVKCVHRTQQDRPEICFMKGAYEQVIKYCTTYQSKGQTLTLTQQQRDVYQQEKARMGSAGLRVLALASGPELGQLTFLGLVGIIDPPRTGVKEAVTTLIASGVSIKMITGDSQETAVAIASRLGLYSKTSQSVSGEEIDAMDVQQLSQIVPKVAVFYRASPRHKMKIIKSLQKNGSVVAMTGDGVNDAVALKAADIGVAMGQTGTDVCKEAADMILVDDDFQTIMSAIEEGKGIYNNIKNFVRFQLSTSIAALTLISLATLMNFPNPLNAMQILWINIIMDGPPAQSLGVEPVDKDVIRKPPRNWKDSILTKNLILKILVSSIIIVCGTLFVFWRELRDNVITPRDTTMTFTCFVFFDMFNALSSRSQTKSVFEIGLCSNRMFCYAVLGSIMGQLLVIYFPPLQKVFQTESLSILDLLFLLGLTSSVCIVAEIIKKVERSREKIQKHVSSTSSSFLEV
UniProt Q15041, whole entry, looked up: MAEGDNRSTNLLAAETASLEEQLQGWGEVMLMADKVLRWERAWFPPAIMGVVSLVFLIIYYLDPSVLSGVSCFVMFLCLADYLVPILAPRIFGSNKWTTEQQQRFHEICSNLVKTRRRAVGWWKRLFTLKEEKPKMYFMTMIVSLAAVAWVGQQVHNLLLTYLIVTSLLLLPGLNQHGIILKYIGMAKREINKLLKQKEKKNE

volasertib = compound: CC[C@@H]1C(=O)N(C)c2cnc(Nc3ccc(C(=O)N[C@H]4CC[C@H](N5CCN(CC6CC6)CC5)CC4)cc3OC)nc2N1C(C)C [volasertib]
Method in brief: as §1

[2] = compound: CC[C@H](C)N1C=C(C2=C(C=C(C=C21)C3=CN=C(C=C3)N4CCNCC4)C(=O)NCC5=C(C=C(NC5=O)C)C)C
Method in brief: as §1

epoxomicin = compound: CC[C@H](C)[C@@H](C(=O)N[C@@H]([C@@H](C)O)C(=O)N[C@@H](CC(C)C)C(=O)[C@]1(CO1)C)NC(=O)[C@H]([C@@H](C)CC)N(C)C(=O)C [epoxomicin]
Method in brief: as §1

[3] = compound: CCn1cc(-c2ccnc3[nH]c(-c4cccc(CN(C)C)c4)cc23)c(-c2ccc(NC(=O)N(C)C)cc2)n1
Method in brief: as §1

[4] = compound: CN(C)CC(=O)Nc1ccc2[nH]c(=O)c3ccccc3c2c1
Method in brief: as §1

[5] = compound: CN1C2=C(C3=C1C(=O)N(N=C3)CC4=CC(=CC=C4)N)SC(=C2)S(=O)C
Method in brief: as §1

[6] = compound: CN1CCC(CNc2ccc3ncc(-c4cccc(OC(F)(F)F)c4)n3n2)CC1
Method in brief: as §1

saracatinib = compound: CN1CCN(CCOc2cc(OC3CCOCC3)c3c(Nc4c(Cl)ccc5c4OCO5)ncnc3c2)CC1 [saracatinib]
Method in brief: as §1

sotrastaurin = compound: CN1CCN(c2nc(C3=C(c4c[nH]c5ccccc45)C(=O)NC3=O)c3ccccc3n2)CC1 [sotrastaurin]
Method in brief: as §1

Tubastatin A = compound: CN1CCc2c(c3ccccc3n2Cc2ccc(C(=O)NO)cc2)C1 [Tubastatin A]
Method in brief: as §1

[7] = compound: CNC(=O)C1=CC=CC=C1NC2=NC(=NC=C2Cl)NC3=C(C=C(C=C3)N4CCOCC4)OC
Method in brief: as §1

defactinib = compound: CNC(=O)c1ccc(Nc2ncc(C(F)(F)F)c(NCc3nccnc3N(C)S(C)(=O)=O)n2)cc1 [defactinib]
Method in brief: as §1

rucaparib = compound: CNCc1ccc(-c2[nH]c3cc(F)cc4c3c2CCNC4=O)cc1 [rucaparib]
Method in brief: as §1

[8] = compound: CNc1nc(-c2ccc3c(N)n[nH]c3c2)cc(N2C[C@@H](C(=O)NC3CCCCC3)CC[C@H]2C)n1
Method in brief: as §1

encorafenib = compound: COC(=O)N[C@@H](C)CNc1nccc(-c2cn(C(C)C)nc2-c2cc(Cl)cc(NS(C)(=O)=O)c2F)n1 [encorafenib]
Method in brief: as §1

[9] = compound: COC(=O)[C@H](CCSC)NC(=O)C1=C(C=C(C=C1)NC[C@H](CS)N)C2=CC=CC=C2
Method in brief: as §1

[10] = compound: CCn1c(C(=O)N(C2CC2)C2CC2)cc2c3c(ncn3C)c(Nc3cc(C)n(C)n3)nc21
Method in brief: as §1

rosiglitazone = compound: CN(CCOC1=CC=C(C=C1)C[C@H]2C(=O)NC(=O)S2)C3=CC=CC=N3 (racemic) [rosiglitazone]
Method in brief: as §1

alvocidib = compound: CN1CC[C@H](c2c(O)cc(O)c3c(=O)cc(-c4ccccc4Cl)oc23)[C@H](O)C1 [alvocidib]
Method in brief: as §1

| Target | log2 fold change [1] | log2 fold change (volasertib) | log2 fold change [2] | log2 fold change (epoxomicin) | log2 fold change [3] | log2 fold change [4] | log2 fold change [5] | log2 fold change [6] | log2 fold change (saracatinib) | log2 fold change (sotrastaurin) | log2 fold change (Tubastatin A) | log2 fold change [7] | log2 fold change (defactinib) | log2 fold change (rucaparib) | log2 fold change [8] | log2 fold change (encorafenib) | log2 fold change [9] | log2 fold change [10] | log2 fold change (rosiglitazone) | log2 fold change (alvocidib) |
| --- | --- | --- | --- | --- | --- | --- | --- | --- | --- | --- | --- | --- | --- | --- | --- | --- | --- | --- | --- | --- |
| ATP5ME (UniProt P56385) | inactive: 0.004 | inactive: 0.038 | inactive: -0.048 | inactive: 0.075 | inactive: 0.002 | inactive: -0.054 | inactive: 0.018 | inactive: 0.069 | inactive: 0.026 | inactive: 0.009 | inactive: -0.009 | inactive: -0.006 | inactive: 0.029 | inactive: -0.022 | inactive: -0.069 | inactive: -0.07 | inactive: 0.023 | – | – | – |
| ASS1 (UniProt P00966) | inactive: 0.02 | inactive: 0.024 | inactive: 0.412 | inactive: 0.025 | inactive: 0.04 | inactive: -0.072 | inactive: 0.025 | inactive: -0.005 | inactive: 0.062 | inactive: 0.088 | inactive: -0.183 | inactive: -0.047 | inactive: -0.007 | inactive: 0.11 | inactive: -0.122 | inactive: -0.018 | inactive: 0.045 | – | – | – |
| ATF3 (UniProt P18847) | inactive: 0.054 | inactive: 0.106 | inactive: 0.22 | inactive: 0.14 | – | inactive: -0.112 | inactive: 0.066 | – | inactive: 0.086 | inactive: -0.117 | inactive: 0.045 | inactive: -0.262 | inactive: 0 | inactive: 0.28 | inactive: -0.003 | inactive: -0.027 | inactive: 0.139 | inactive: -0.111 | inactive: -0.194 | inactive: 0.21 |
| ATP6AP1 (UniProt Q15904) | inactive: -0.05 | inactive: -0.02 | inactive: 0.033 | inactive: 0.09 | inactive: 0.037 | inactive: -0.074 | inactive: 0.098 | inactive: 0.016 | inactive: -0.021 | inactive: -0.097 | inactive: 0.043 | inactive: -0.011 | inactive: 0.066 | inactive: -0.057 | inactive: -0.006 | inactive: 0.053 | inactive: -0.031 | – | – | – |
| ATP6V1F isoform 2 (UniProt Q16864) | inactive: 0.01 | inactive: -0.036 | inactive: -0.043 | active: 0.525 | inactive: 0.02 | inactive: 0.165 | inactive: 0.033 | inactive: 0.056 | inactive: -0.198 | inactive: 0.092 | inactive: 0.11 | inactive: 0.031 | inactive: 0.007 | inactive: -0.037 | inactive: -0.129 | inactive: -0.039 | inactive: 0.238 | – | – | – |
| ATP23 (UniProt Q9Y6H3) | inactive: -0.007 | inactive: 0.004 | inactive: -0.078 | inactive: 0.016 | inactive: 0.055 | inactive: -0.045 | inactive: -0.087 | active: -0.478 | inactive: 0.029 | inactive: 0.04 | inactive: -0.056 | inactive: 0.055 | inactive: 0.028 | inactive: 0.096 | inactive: 0.041 | inactive: 0.001 | inactive: 0.01 | – | – | – |
| ATP1A4 (UniProt Q13733) | inactive: 0.125 | inactive: 0.07 | inactive: -0.025 | inactive: 0.081 | inactive: -0.056 | inactive: -0.05 | inactive: -0.057 | active: 0.26 | inactive: 0.066 | inactive: -0.088 | inactive: -0.017 | inactive: 0.151 | inactive: 0.033 | inactive: -0.076 | inactive: -0.108 | inactive: 0.021 | inactive: 0.118 | – | – | – |
| ATOX1 (UniProt O00244) | inactive: 0.009 | inactive: 0 | inactive: -0.015 | inactive: 0.107 | inactive: -0.079 | inactive: 0.056 | inactive: -0.023 | inactive: 0.094 | inactive: -0.042 | inactive: -0.054 | inactive: 0.062 | inactive: 0.001 | inactive: -0.117 | inactive: -0.09 | inactive: -0.046 | inactive: 0.047 | inactive: -0.105 | – | – | – |
| ATP6V1H (UniProt Q9UI12) | inactive: -0.085 | inactive: -0.093 | inactive: 0.069 | inactive: 0.098 | active: -0.244 | inactive: 0.012 | inactive: -0.026 | inactive: -0.069 | inactive: -0.047 | inactive: -0.015 | inactive: 0.046 | inactive: -0.016 | inactive: -0.042 | inactive: 0.016 | inactive: 0.054 | inactive: 0.016 | inactive: -0.043 | – | – | – |
| ATP5PF isoform 2 (UniProt P18859) | inactive: 0.038 | inactive: -0.004 | inactive: -0.033 | inactive: 0.307 | inactive: 0.049 | inactive: -0.079 | inactive: -0.033 | inactive: 0.31 | inactive: -0.101 | inactive: 0.057 | inactive: 0.031 | inactive: 0.046 | inactive: -0.004 | inactive: 0.103 | inactive: -0.054 | inactive: -0.046 | inactive: -0.014 | inactive: 0.106 | inactive: 0.053 | inactive: -0.019 |
| ATP2C1 isoform 7 (UniProt P98194) | inactive: 0.002 | inactive: -0.113 | inactive: -0.027 | inactive: 0.118 | inactive: 0.097 | inactive: -0.002 | inactive: -0.032 | inactive: -0.096 | inactive: 0.018 | inactive: 0.065 | inactive: -0.04 | inactive: -0.006 | inactive: -0.045 | inactive: -0.042 | inactive: -0.043 | inactive: 0 | inactive: 0.009 | inactive: -0.008 | inactive: 0.029 | inactive: 0.037 |
| ARL6IP1 (UniProt Q15041) | inactive: -0.056 | inactive: -0.008 | inactive: -0.076 | inactive: 0.04 | inactive: -0.11 | inactive: -0.005 | inactive: 0.015 | inactive: 0.038 | inactive: 0.004 | inactive: -0.124 | inactive: -0.123 | inactive: 0 | inactive: 0.031 | inactive: -0.072 | inactive: -0.071 | inactive: -0.048 | inactive: 0.174 | inactive: 0.011 | inactive: -0.015 | inactive: -0.05 |

Part of the list above, reformatted:
Target	log2 fold change [1]	log2 fold change (volasertib)	log2 fold change [2]	log2 fold change (epoxomicin)	log2 fold change [3]	log2 fold change [4]	log2 fold change [5]	log2 fold change [6]	log2 fold change (saracatinib)	log2 fold change (sotrastaurin)	log2 fold change (Tubastatin A)	log2 fold change [7]	log2 fold change (defactinib)	log2 fold change (rucaparib)	log2 fold change [8]	log2 fold change (encorafenib)	log2 fold change [9]	log2 fold change [10]	log2 fold change (rosiglitazone)	log2 fold change (alvocidib)
ATP6AP1 (UniProt Q15904)	inactive: -0.05	inactive: -0.02	inactive: 0.033	inactive: 0.09	inactive: 0.037	inactive: -0.074	inactive: 0.098	inactive: 0.016	inactive: -0.021	inactive: -0.097	inactive: 0.043	inactive: -0.011	inactive: 0.066	inactive: -0.057	inactive: -0.006	inactive: 0.053	inactive: -0.031	–	–	–
ATP6V1F isoform 2 (UniProt Q16864)	inactive: 0.01	inactive: -0.036	inactive: -0.043	active: 0.525	inactive: 0.02	inactive: 0.165	inactive: 0.033	inactive: 0.056	inactive: -0.198	inactive: 0.092	inactive: 0.11	inactive: 0.031	inactive: 0.007	inactive: -0.037	inactive: -0.129	inactive: -0.039	inactive: 0.238	–	–	–

From the supplement of paper PMC10849652
